Consider 1 molecule from publication PMC2685736, “Conservation of a conformational switch in RadA recombinase from Methanococcus maripaludis” (Acta Crystallographica Section D: Biological Crystallography, 2009).

These are yes or no findings as the source states them, for the method shown. Some entries that bind do so weakly or less than the wild type.

The target of the assay is RadA recombinase from Methanococcus maripaludis (Methanococcus maripaludis) (UniProt P0CW58). Nature of the assay: crystal structure; MmRadA (~1 mM) with 2 mM AMPPNP; hanging drop, 6-8% PEG 3350, 50 mM MgCl2, 50 mM Tris-HCl pH 7.9, 0.1-0.4 M monovalent salt (NaCl, KCl, RbCl or NH4Cl); space group P6_1, helical filament along the c axis (pitch 107.1-108.5 A); ATPase-active and inactive conformations; both purified.

B1: RadA recombinase from Methanococcus maripaludis (enzyme, UniProt P0CW58 1-322)
chain: MADVLTELPGVGPSTADKLIEGGYLDFMKIATATIGELTDIEGISEKAAAKMIMAARDLCDLGFKSGVELLKQRQSVWRLSTGSTELGTVLAGGIESQSVTEFAGMFGSGKTQIMHQTCVNLQMREKIFADLEGVVEEELEAPKAVYIDTEGTFRPERVVQMAEGAGIDGQTVLDNTFVARAYNSDMQMLFAEKIEDLIKGGNNIKLVIIDSLTSTFRNEFTGRGKLAERQQKLGRHMATLNKLADLYNCIVLVTNQVAAKPDAYFGVAEQAIGGHVVGHAATFRFFLRKSKGDKRVAKLYDSPHLPDSEAVFRITEKGIQD
Take B1: the binding entry was “binds”.
